According to PubChem BioAssay AID504444 (National Center for Advancing Translational Sciences (NCATS), 2011):
The whole screen tested about 360,000 compounds, of which about 7,500 (2.1%) were called active. Inconclusive means that the source gave no clear call. Such entries were picked first, then a sample of the others. Calls follow the shape of the dose curve; as a rule, active = well fitted inhibition curve with a large enough effect; inconclusive = small, poorly fitted or top-dose-only effect, or effect the other way; inactive = flat fitted curve, though single readings scatter. Where the call is inconclusive, the potency comes from a doubtful curve fit.

assay: Nrf2 qHTS screen for inhibitors; settings: A549 ARE-Fluc reporter, luciferase luminescence, 18-24 h; activity change, negative = inhibition: at 46 µM (top of the series); also: nearly all actives have a fitted effect of over 60% in size
How it was run: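 A549 ARE_Fluc cells (5000/well, 5% FBS OPTI-MEM) pre-incubated 2 h, then treated with compounds 18-24 h at 37C/5% CO2 in concentration-response. CellTiter-Fluor viability read first; BugLite luciferase luminescence after 15 min at room temperature gives Nrf2 activity.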
% is scaled to controls: 0 for no effect and ±100 for the full control effect; potency is read from the fitted curve at half-maximal effect.

| Structure (SMILES) | Potency | activity change, negative = inhibition |
| --- | --- | --- |
| CC(C)(C)OC(=O)N1CCC(c2c(C(=O)N3CCN(c4ccccn4)CC3)cnn2-c2ccc(F)cc2)CC1 | inconclusive: 10.3 µM [activator, single point] |  |
| COc1ccc(CC(=O)NNC(=O)c2ccc(NC(C)=O)cc2)cc1 | inconclusive: 0.731 µM [activator, partial curve, poor fit] |  |
| COc1ccc2c(c1)c(=O)c(S(=O)(=O)c1ccc(F)cc1)cn2Cc1ccccc1Cl |  | inactive: 14.4% |
| COc1cccc(NS(=O)(=O)c2ccc(S(=O)(=O)N3CCCC3)cc2)c1 | inconclusive: 18.4 µM [falling, partial curve] |  |
| CCSc1nnc(NC(=O)C2CCN(C(=O)c3ccco3)CC2)s1 | inconclusive: 6.51 µM [falling, partial curve, poor fit] |  |
| COc1cccc2c(C)cc3nnc(SCC(=O)Nc4ccc(C)cc4)n3c12 | inconclusive: 7.31 µM [falling, partial curve] |  |
| O=C(CN1C(=O)NC(c2ccc(F)cc2)C1=O)NC1CCCCC1 (centres undefined) |  | inactive: 3.77% |
| COCCNC(=O)CN1C(=O)c2cccnc2Sc2ccccc21 | inconclusive: 16.4 µM [activator, partial curve, poor fit] |  |
| Cc1ccccc1OCC(=O)N1CCC2(CC1)CC(=O)c1ccccc1O2 |  | inactive: -0.778% |
| O=C(c1ccc2c(c1)OCO2)c1cn(Cc2ccc(Cl)cc2)c2ccc(F)cc2c1=O | inconclusive: 18.4 µM [falling, single point] |  |
| CC(=O)c1ccc(NC(=O)c2sc3nc(C)c(C)c(C)c3c2N)cc1 | inconclusive: 5.8 µM [activator, full curve] |  |
| COc1ccccc1N1CCN(C(=O)c2sc3nc(-c4ccc(F)cc4)cn3c2C)CC1 | inconclusive: 25.9 µM [falling, partial curve, poor fit] |  |
| O=C(CCCN1C(=O)/C(=C/c2ccccc2Cl)SC1=S)N1CCCC1 |  | inactive: 1.21% |
| C(#Cc1ccccc1)Cn1nnc2ccccc21 | inconclusive: 5.17 µM [activator, full curve] |  |
| O=C(Cn1cc(SCc2c(F)cccc2Cl)c2ccccc21)N1CCCCC1 | inconclusive: 29.1 µM [activator, single point] |  |
| CCCSc1oc(-c2ccco2)nc1S(=O)(=O)c1ccccc1 | inconclusive: 11.6 µM [falling, partial curve, poor fit] |  |
| COc1cc(CN2CCc3ccccc3C2)ccc1O | active: 7.31 µM |  |
| CC(C)(C)OC(=O)NCCc1nnc(SCc2cccc(Cl)c2)o1 |  | inactive: 8.27% |
| Cc1ccc(NCc2ccc(O)c3ncccc23)c(F)c1 | active: 20.6 µM |  |

Part of the list above in another layout.
Structure (SMILES)	Potency	activity change, negative = inhibition
O=C(CCCN1C(=O)/C(=C/c2ccccc2Cl)SC1=S)N1CCCC1		inactive: 1.21%
C(#Cc1ccccc1)Cn1nnc2ccccc21	inconclusive: 5.17 µM [activator, full curve]	
